The supplement of paper PMC5949888
Most values lie at the floor of the assay. Slopes are relative: functional sequences can read slightly below zero.

What follows are substances tested on Saccharomyces cerevisiae PS128 hsf1 delta, HSF1(1-493) fusion (assay: growth estimate (transactivation domain function in HSF1 fusion, heat-shock survival) (a.u. (slope of normalised read count over time)); higher = stronger growth at 37°C, i.e. more transactivation activity). Details: library: random library.
Work on IARIQILKL yielded a growth estimate of under -0.25.
YGLSGSCWWLSGGQERQSVR gave a growth estimate of under -0.25.
Work on QKSQSELMECIRSLFQWCWI yielded a growth estimate of under -0.25.
Work on SFEFTRNRANRPKLMVALKG yielded a growth estimate of under -0.25.
Work on RVKMLTYARCNLEGGCWVY yielded a growth estimate of under -0.25.
With LVRNGGRPCTRHGMERRTPL the growth estimate was -0.151.
In the case of VLQVIPSCGFPVQTRTVCQH, the growth estimate is reported as under -0.25.
Substance LKNGRLLALSM has a growth estimate of under -0.25.
Work on LTSCPGPAAAVSRGQPKFHE yielded a growth estimate of under -0.25.
PFGTVEPGSRRPQRQMGGPR was tested, and the growth estimate was under -0.25.
LFLRVISECGDNVLRVLTLD was tested, and the growth estimate was under -0.25.
SVTGASS showed a growth estimate of under -0.25.
Work on AILSSRSVRLCSSVERGIIT yielded a growth estimate of under -0.25.
Work on RTSSRGGSQYSSRAS yielded a growth estimate of under -0.25.
For VRMSRHSTGRRKGGELPARI, the growth estimate was under -0.25.
Work on AIREGRNMRRQIRLVGGYIG yielded a growth estimate of under -0.25.
Work on STGYRPTISSPAVRSKVVIR yielded a growth estimate of under -0.25.
For HELDLRCAGLVQYPRSNLDL, the growth estimate was under -0.25.
For DLSEMLLPQVLPR, the growth estimate was under -0.25.
Work on GVADLCVRWLQLHIMLA yielded a growth estimate of under -0.25.
AVFCYWTGVLR was tested, and the growth estimate was under -0.25.
GDIASLRQLSGPLVRSIRRR gave a growth estimate of under -0.25.
For NEVFDGQRHTSESGGCSPGC, the growth estimate was under -0.25.
FTF showed a growth estimate of under -0.25.
In the case of DQSHESPRYKSTLGLRWHAC, the growth estimate is reported as under -0.25.
NGFLPSTEILAK showed a growth estimate of under -0.25.
VYQFGKGWR gave a growth estimate of under -0.25.
RQPLSLSAPVVLLCRWPTST showed a growth estimate of under -0.25.
In the case of NGKLCPG, the growth estimate is reported as under -0.25.
Work on GNLLAHRRLGSVRGRLDSRL yielded a growth estimate of under -0.25.
RWAYRVARVNFVVKKGPSVT showed a growth estimate of under -0.25.
With ITV the growth estimate was under -0.25.
In the case of AQLGGVSGFARMSRTEVITR, the growth estimate is reported as under -0.25.
IFSWDCTKNQQLIFGA was tested, and the growth estimate was under -0.25.
ETSSCDPCSGTLTFSCCAVG gave a growth estimate of under -0.25.
VGVRVILVEICPRANRTVT was tested, and the growth estimate was under -0.25.
In the case of AEEDLEGFGGEGGFKACKYF, the growth estimate is reported as under -0.25.
For YSSCSISLYIQGKTLAVRRG, the growth estimate was under -0.25.
MLCKNSVVIRTNRLRHYRHR gave a growth estimate of under -0.25.
For GPWFPHWQARESFIQHWTNQ, the growth estimate was under -0.25.
With TTGIADALPYPDVGGSSCGA the growth estimate was under -0.25.
VSTKGLH was tested, and the growth estimate was under -0.25.
In the case of EFGSPWCRGAMSNRWIFHIR, the growth estimate is reported as under -0.25.
Work on HRQNSRTPRSVSTVMSNMLL yielded a growth estimate of under -0.25.
PEPSTSA was tested, and the growth estimate was under -0.25.
For DQVPKP, the growth estimate was -0.145.
With LRYDGGVVNSV the growth estimate was under -0.25.
Substance GYASPDVEREGSLGFPIPAL has a growth estimate of under -0.25.
Work on PYEPVAKPWF yielded a growth estimate of under -0.25.
For KARR, the growth estimate was under -0.25.
For RSILGKGTIALPMPKRWYRS, the growth estimate was under -0.25.
With SLLPGSIQSR the growth estimate was under -0.25.
With TSVKSCLVLCKIAHKIYRFG the growth estimate was under -0.25.
NSIYYVALCQ gave a growth estimate of under -0.25.
With SSQGNRRS the growth estimate was under -0.25.
RFWWYYRSIHGTRLRSGSKQ was tested, and the growth estimate was under -0.25.
In the case of CRLSYWGGLPFALAKRVCFL, the growth estimate is reported as under -0.25.
Substance SVTCELCLIIRGPLRVFN has a growth estimate of -0.245.
In the case of KEEGPW, the growth estimate is reported as -0.243.
Work on TVLMEIVYLGTKVWSICSMY yielded a growth estimate of under -0.25.
With HFRKGVWLEWS the growth estimate was under -0.25.
VSRHWRQRFQPEQCAPMPGP was tested, and the growth estimate was under -0.25.
GEHVNKLSMASHVIVVFPVR showed a growth estimate of under -0.25.
RHVRGYTACFRPFVTLGLRF showed a growth estimate of under -0.25.
ATYPT was tested, and the growth estimate was under -0.25.
With RHLRCVETGHRH the growth estimate was under -0.25.
RNNQSVESATTHEFIKLHSS was tested, and the growth estimate was under -0.25.
FQIFEVN gave a growth estimate of under -0.25.
In the case of RLEDIGST, the growth estimate is reported as under -0.25.
MMSETLGTGGVVQRDQRLRA gave a growth estimate of under -0.25.
Work on DLMDSTVSYSSP yielded a growth estimate of under -0.25.
In the case of LFRNLPFTGTDRICCYLNSF, the growth estimate is reported as under -0.25.
ESNRRLARGGNSGKKNF was tested, and the growth estimate was under -0.25.
In the case of RLVVVAP, the growth estimate is reported as under -0.25.
With DPAYGDKDICEWTYCVKLQI the growth estimate was under -0.25.
Substance MRHSYRLGGLSIVHSSMSVS has a growth estimate of under -0.25.
For TTSDTALEEGLMITPFLLPL, the growth estimate was under -0.25.
In the case of NDRTCKSEHSIPDNPPRTNI, the growth estimate is reported as under -0.25.
In the case of IGSRWNAMTYSQIWSCPSFH, the growth estimate is reported as under -0.25.
With REHQHKLDTGEQLSRGEGLR the growth estimate was under -0.25.
KTRHSGRRTVDSQINDTNGP showed a growth estimate of under -0.25.
QEMTRIHDLGSGSVNGTDKC gave a growth estimate of -0.246.
AQRGPSNAHILGSQPRLSIL showed a growth estimate of under -0.25.
AVWERGCVGFGTILAWMAWA gave a growth estimate of under -0.25.
PCAMCCQYKRGCVSVAIQEA gave a growth estimate of under -0.25.
RAAALANSGALPIFRTTVSR gave a growth estimate of under -0.25.
With SISTQAGDQDNSTWAPFESA the growth estimate was under -0.25.
Work on YLPPGRAHAQPYDQRCICGP yielded a growth estimate of under -0.25.
Work on SILYSCGDPQELCSSSVWWA yielded a growth estimate of -0.174.
Work on LWSRGGRSWAICSECVRQPS yielded a growth estimate of under -0.25.
LCLPAGTHKAIVSKDFI showed a growth estimate of under -0.25.
In the case of VLGIHGSEPCPGRPGTSRAV, the growth estimate is reported as under -0.25.
In the case of GPSGRFSSGWVCNRV, the growth estimate is reported as under -0.25.
Substance RNPRVKPAFCPDRM has a growth estimate of under -0.25.
For SLARSLDRNARSSHFQGL, the growth estimate was under -0.25.
LLWCWGVARCIDCCSSKSCL showed a growth estimate of under -0.25.
WHCLRISGPIGIHNP gave a growth estimate of under -0.25.
APVVSFSKYHAML showed a growth estimate of under -0.25.
For SFPKFD, the growth estimate was under -0.25.
For SRAWNGGDLNCYGG, the growth estimate was under -0.25.
In the case of VSLSEDHGGAARVFRAVAEL, the growth estimate is reported as under -0.25.
Substance EEDV has a growth estimate of under -0.25.
For SGHTMGQWVWMRFYPE, the growth estimate was under -0.25.
With GDSGNLLHVIVRPPYPGCRV the growth estimate was under -0.25.
QWTLGDARY gave a growth estimate of under -0.25.
VVGSEQV gave a growth estimate of under -0.25.
DVGLILSELEVTRELSSPKM gave a growth estimate of under -0.25.
In the case of MYVSYICS, the growth estimate is reported as under -0.25.
Substance STSQLVRLRS has a growth estimate of under -0.25.
For RAVRVAT, the growth estimate was under -0.25.
